Experimental data from patent publication US10351601B2 (Mainline Biosciences, priority 2016, dated 2019).
For part of these data: HELM strings list residues between dots; [ac] is acetyl, [am] amide, other brackets name non-standard units. Bridge positions count the residues as written; N and C are the ends. Square brackets hold non-standard residues; d marks the D form. * marks the point of attachment. 2Nal = N[C@@H](Cc1ccc2ccccc2c1)C(=O)O; Lys(iPr) = CC(C)NCCCC[C@H](N)C(=O)O; hCys = N[C@@H](CCS)C(=O)O; Bz = O=C(c1ccccc1)*; Mpa = O=C(O)CCS

Assays:
[1] = general procedure: Fmoc solid-phase peptide synthesis; Rink AM resin; DCC/HOBt; settings: whole synthesis, analytical HPLC, scale of the general procedure 3.6 grams of Rink AM resin
[2] = general procedure: Fmoc solid-phase peptide synthesis; 2-chlorotrityl chloride resin; DCC/HOBt; settings: whole synthesis, analytical HPLC, scale of the general procedure 3.6 grams of Rink AM resin, acetate salt

## Ac-[hCys]Y[Lys(iPr)][dR][2Nal]GC[Lys(iPr)]G-NH2 (disulfide 1-7)
[1]; acetate salt
  final HPLC purity: 96.13%

## Ac-cyclo[hCys-Tyr-Lys(iPr)-(D-Arg)-2Nal-Gly-Cys]-Lys(iPr)-Gly-NH(Et)
[1]; acetate
  final HPLC purity: 95.03%

## Benzoyl-cyclo[hCys-Tyr-Lys(iPr)-(D-Arg)-2Nal-Gly-Cys]-Lys(iPr)-Gly-NH(Et)
[1]; acetate
  final HPLC purity: 97.59%

## Bz-CY[Lys(iPr)][dR][2Nal]GC[Lys(iPr)]G-NH2 (disulfide 1-7)
[1]; acetate
  final HPLC purity: 97.04%

## Bz-CY[Lys(iPr)][dR][2Nal]G[hCys][Lys(iPr)]G-NH2 (disulfide 1-7)
[1]; acetate
  final HPLC purity: 95.64%

## Bz-[hCys]Y[Lys(iPr)][dR][2Nal]GC[Lys(iPr)]G-NH2 (disulfide 1-7)
[1]; acetate salt
  final HPLC purity: 95.98%

## Cyclo[Mpa-Tyr-Lys(iPr)-(D-Arg)-2Nal-Gly-Cys]-Lys(iPr)-Gly-(D-Phe)-Gly-NH(Et)
[2]
  final HPLC purity: 96.54%

## Cyclo[Mpa-Tyr-Lys(iPr)-(D-Arg)-2Nal-Gly-Cys]-Lys(iPr)-Gly-NH(Et)
[2]
  final HPLC purity: 95.71%

## Cyclo[Mpa-Tyr-Lys(iPr)-(D-Arg)-2Nal-Gly-Cys]-Lys(iPr)-Lys(lauroyl)-NH(Et)
[1]; acetate
  final HPLC purity: 95.42%
[1]; acetate salt
  final HPLC purity: 96.42%

## Cyclo[Mpa-Tyr-Lys(iPr)-(D-Arg)-2Nal-Gly-Cys]-Lys(iPr)-Lys(palmitoyl)-NH(Et)
[1]; acetate
  final HPLC purity: 95.31%

## PEPTIDE1{[ac].C.Y.[Lys(iPr)].[dR].[2Nal].G.C.[Lys(iPr)].G.[am]}|CHEM1{[mXyl]}$PEPTIDE1,CHEM1,2:R3-1:R1|PEPTIDE1,CHEM1,8:R3-1:R2$$$V2.0
[1]; acetate
  final HPLC purity: 95.23%

## Phenylacetyl-cyclo[hCys-Tyr-Lys(iPr)-(D-Arg)-2Nal-Gly-Cys]-Lys(iPr)-Gly-NH2
[1]; acetate
  final HPLC purity: 95.67%

## [Mpa]RYR[2Nal]GCRG[dF]G-NH2 (disulfide 1-7)
[1]; acetate salt
  final HPLC purity: 96.05%

## [Mpa]YR[dR][2Nal]GCRG[dF]G-NH2 (disulfide 1-7)
[1]; acetate salt
  final HPLC purity: 96.64%

## [Mpa]Y[Lys(iPr)][dR][2Nal]GCRG[dF]G-NH2 (disulfide 1-7)
[1]; acetate salt
  final HPLC purity: 98.78%

## [Mpa]Y[Lys(iPr)][dR][2Nal]GC[Lys(iPr)]G[2Nal]G-NH2 (disulfide 1-7)
[1]; acetate salt
  final HPLC purity: 96.44%

## [Mpa]Y[Lys(iPr)][dR][2Nal]GC[dR]G[dF]G-NH2 (disulfide 1-7)
[1]; acetate salt
  final HPLC purity: 97.02%
